# Test results taken from PMC5402319.
# A negative result means that nothing was seen under these conditions. Protein sequences can lack the tags named with them. The exact form of at least one protein or probe is not confirmed.
# Target: T1, His6-σ8 (SigB-like sigma factor) (Streptomyces avermitilis) (UniProt Q82PY0)
# T1 sequence (looked up): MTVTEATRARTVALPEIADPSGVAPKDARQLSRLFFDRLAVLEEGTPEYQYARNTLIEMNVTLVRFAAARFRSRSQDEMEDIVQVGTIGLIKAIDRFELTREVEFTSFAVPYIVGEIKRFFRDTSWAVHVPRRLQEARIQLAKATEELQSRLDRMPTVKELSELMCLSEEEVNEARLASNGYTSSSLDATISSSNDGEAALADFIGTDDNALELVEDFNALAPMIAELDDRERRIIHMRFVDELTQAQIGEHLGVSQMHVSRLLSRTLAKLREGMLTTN
# Experiment: EMSA
# Details: 0.25-1 uM protein; EMSA with 0.15 nM DIG-labeled probe, 0.25-1 uM His6-σ8, ~300-fold excess unlabeled competitor; pH and temperature not given (as in Sun et al., 2016); recombinant protein; residues 1-279; protein details: N-terminal His6 (pET-28a); label: 3' DIG; probe letters rebuilt from the primers and the genome
row,Sequence,binding result
1,TGCTCACCACCAACTGACCCCACTCGTTCGCAACACACCGGCGGCGCTCCGCACCCTGCGAGGGTGGGGAGCGCCGCCCGTTCATTCCAGCAGCCGGGTACGAGGCGGCCGAACGCAAAATCGCTCGGCCGGCCGAGCGGACGCACTCGGCTTGCCCGTCGCCTTCCGCGTCCAGACCCTCGAAGCTGGGCCCGATCCCCACCAGGCGCCGGATGTCGGCATCGACCTGGGCGTCACCCTGCCCATCACTCTGTCGGAGGGCGAAACGCACGAGCCCGGCGAATGGCTGACCCGCAAGGAGCAGGCCGGGCGGGCCCGCGTGATGCACGCAACGCAATCGGGGTGATCTCCGCGTGGAAGGATCTCGACGGGAGTACCGGCGCGGGGATCGGGGATGAACGGAATGATCGGG (double strand) [sav_742p],binds

# Same assay, conditions: EMSA with 0.15 nM DIG-labeled probe, 0.25-1 uM His6-σ8, ~300-fold excess unlabeled competitor; pH and temperature not given (as in Sun et al., 2016); recombinant protein; residues 1-279; protein details: N-terminal His6 (pET-28a); label: 3' DIG; probe letters rebuilt from the primers and the genome
row,Sequence,binding result
1,CGGTCACCACTGTTTCGTTCCGGAGGGTGTGCGGACCGTGTGCGAAGCTGCCGAACTGTTATGGCCTGGTTCAACCAGGGTGAAACACTGGGCAGGCTTCGTAGGAAGGCCGGGGCAGGCCGCGCGTCTGCCGTGTACGACCGGCGGCAGCACCTGGCGCGCCGAGTACTAGGACGCGGCAGGCCGAGCAGAAGCGCAGAAGCATCATCAGAAGTATCAGCAAGCCGAGCACGCACAGCAGTATTGGTCGACCCTGCGGGAGGGACACAGTGGAGTCTGGCG (double strand) [osaAp],binds
2,GGCTTGATGGCAACCTTGGAGCTGGCGGTCGTCACGATCCGACCTCCCCCTTCGGAGATCTCACGGGGTTAACTGTCTGAGGTGGCGACCAGGTCGATCCGTCGTCGCGGGTGCCGGACCTGCCCGTCGCTACTGGCACTCTCCAGTGGGGAGTGCCAGACCTGAGACTATGACCGCGGTTAGCACTCGGTCAAGCGGAGTGCCAAT (double strand) [groES1p],no binding
3,ACATCAGACGAACGCCTCGTGGACGTAGCACCAGCGCCAATCCTCGCCGGGCTGGAACGACTGCACGATCGGATGGGCGTCGGCAGCCGCGTGCCTACGCGCGTGCTTGTTCGGCGAGGAGTCACAGCAGCCGACGTGCCCGCAGGTCAGGCAGAGCCTCAGGTGGACCCACGGGGAGCCGAGCAGCAGACACTCCTGACACCCTTCTGG (double strand) [trxB2p],binds
4,GAAATGAATCGCCCATGACTTGACCCCCGATGTCTGGGTACGCAGAGCGGGCGGCCGACTCAGCTGGGGCGCGAGGAGCGGACAAGATGGACGGGGCTGCCTTGGGTACCACGGCCGCACTCTCTTCGGCACGCCGGTTCATTCCGTCGACGCGTGCCCTGGTGCGGGTCTCACCGCACCATGAGAAATTGACGGGCAAAAGGCCGCCTTCTCATATTTCGCCCCATGCGTTCGCCTGCCACAGCACTCGACACTCGGCCACCGCGACCGTGGCCGGCCAGACACGAAGGAAGCGTCTCCGATGAGCGAGGCCAACCCCCTCAAGCGAGCAGCACGGAA (double strand) [katBp],binds
5,TTCAGATGGACGGCTACCGCACCCTGGAAGAGGGTCAGCGGGTCGATTTCGAGATCTCGCAAGGCCAGAAGGGGCCGCAGGCGGACATGGTCCGACTGGCGACCGGCTGAAGCACGCGCCGACTGACTGTTCGACGTGACGAAGGGCCCGTATCCCCTCCGGGGTACGGGCCCTTCGGTCTGCCCCGGGGCGTCCGGAGCGCCTGCGCACGTGTGGGGCGCACAGGTGCGTTCACCTGCGGATTGCCTGGAGCCGCTTGCACTCGGCAGGGGCGAGTGCTAATCATTGGCGTTAGCACTCT (double strand) [groEL2p],no binding
6,TCCAGGACTTCGGGTTCGACCTGGAGGAGACGCGGCCCTTCGTGGAGTGTCTGCGGGCCGGCCACCCGGAGGGCGACTCGTGCCCGGCGTCGCTCGCGGTGTACCGGCGCAAGCTCGGCGAACTCGACGCGCTGATCGGCGAGTTGCAGGCCGTGCGGGCGCAGGTCGGCGACCAGCTGGCGCGGGCCGAGCTGGCCCGCGACGAGCTGGCGGCCGAGGCGGGGGTTCCGGGCGGTCCGGAGCCCGTGTGCGAACTGGGAGGGCAGACGCGGTGATCAAGGCGGCGGGCGTGACCGAAGTGAC (double strand) [sav_2810p],no binding
7,GCCGACCAGCTCGCTCTCGACGACCGCGGTGGACAGGCCGGCCGCGCGGGTGCGGTCGGCGACGTTCTCCCCCACCGGACCGGCCCCGAGCACCACGACGTCGTACGCGATGGATTCCGTTTCCGTCATGGGGTCAGTCTGGTAGCTGGTGTGCGTGCTGGCCACACGGGTACGCGCGCGGAATACGGCGCCGGAGGGTGGCGTTGTGGACAGCGGCTTGCCCCGAGCCCCCGACACCAGGAAGAGGGAAACACGCC (double strand) [trxA3p],binds
8,TACGGCGATCATGGTTTCGCCGTCCCCAAACGGGCGCCCCTCGGCCAGGAGCAGGCCCTGGCGATCATCACGGACCGTGTTGTGGAGTGGACCGCGTCACTCGGGTAGGGCCCGGGAATGCGGTGTGGCTGACTGCTGTTGTGGCGAACAGAGAGTGTTCATCGTTCGTACGAGAGGAAGTCCGCCGCATGGGTTCGACCTTCTGCCCGAGCCGAAGCAGCGCCCGTGACCTGGAGTGGTCGGTGCTGCACGCGGCGAAGACCGCCCCGATTCGGGCGGCGGCCGGACCGGATCGTCGTCTATC (double strand) [sig22p],binds
9,CAGCGCCAGCAGATTCTCCGGCCGGTCATCGACCAGGAGGATCTTGGCCTTCTGCACCATGGCCCGCCCTCCTCGCCCCGGCATGGGGCCTCCCCTGTCCGCAGGACTTGGGGAAGCACCGGGCGCCGCCCCAGGGGACGACTCCCTTGCGCCGCCCGTCCTTGTGCCGGTCATGGTAGCCGCACCCCGCCTGTCGCCACACCCTGTCACCGCGATGTCACTGTGCACGTAGCAGAAACGTAGCGGGAGACCAGAAGGTTCCCCGAATCCCGCACTCCTACACGGCGTCCGACACACTCAGTCAGCAACTCCGTGTGAACGTTTCGCGTTCCCGTCACTCCGCACGCATCCACTGTTCCA (double strand) [osaBp],binds
10,CGTTCTCCTCGAGCCTACAGGCGAGCGGTGGTACCCGCTCCCGGGCCGGCTCATCCCAGATGTTCGGATGATTCCTCTCGTACTCGTGGGGCGACCGGACCCGTGCATTCCTGACTCGCCAGGCGCAGGCGTGGAGGCCCCCGGTTCGTCACCCTGGGGGTGCTCGAGCGCCTTCGTGCGCACGGGTGGGAAACCGGCCGAGGTCCCACCCCTACCTGAACGAACGTGATCCGGAGAGTCGACGCGGGCGCCGTACCGGGAGGAGTTCCCCATGGCCAAGGCAGTGGGCATCGACCTGGGCACCACCAACTCGGTGATCGCCGTGTGGGAG (double strand) [dnaK2p],no binding
11,TGGAGGCACAGCAGAGACGGCTGTACCCCCGCCGCCCTGCCTGGCCGCTTCGGCGCGCGCCTGCTCCGCCTTCGCCTTGGCCTCCTGGGCCGCCTTCACCGCGGCGAGGTCGACGACTCCGCTCATGGACATGTTCCGTGGCTGCATGAGTACATCCTCCCCCTTCCGCGCCCGCGTGTGAAAAGCGTTGTGAAAGCCAGACTTGGCACATGATGATCGGCGCCGGGTCCCCACCTGGCGCCAGTGGTCGTCGCTCGCGTGCGAGTCACCGCGCACGAGCTTTCGCTACGAGTCGTAGCGTAACTGTCCC (double strand) [trxA6p],no binding
12,CTCACCTCGGGAAAGCACCCGGAGCCGAGCGGTGAGTGGCCGGCGATTCCATGGCCGCCGGTCTAGGGCCCGATGTCGTGGTCGTGAGCACGATTTCGGGGCCGCCGGTGTCGCGGAGCGCCGAACGCATGCCGGGCGGCATTGCGCAAGAGGGCCTTCTCGGTCATCAGGCCTGGTCCGGTTCGTATACGGAACATCCGTCCGGTTAGGCTCATGACATGCATGCCTGGCCCGCTTCTGAGGTCCCCGCCCTGCCTGGTGAGGGCCGCGACCTCCGGATCCACGACACCGCGACCGGCGGGGTAATACCCCTGCACCCCGGTCCCGTCGCCCGTATCTA (double strand) [mshCp],binds
13,GGAAAGCCGCTGGTCAGACGGCTCGTTCCGGACCCGGTACCGGTCGTCGGGGACCCGTCGCCGGTCCGCGGGGCGGGCCTCGTGGCGTCCGGAGCGTGCGCTCGCAAGGCGCGGGGAGGTCCGCGACGAGGCCCGCGAAGGGAGTCCCCCCGGTCCTTGCACCTTGGCGGAGGAGCTGCCGGGCCGTTCCCGCAGCACGGCGAGCGTGTGCGCCAGGCGACGCGAGGCAGGCAGAAATGCGAGTACAGGGCCTAAGATGGCGCGCCCCGGCCATCCCCTCGCGGTCGCCTCCTCCCGGGACCGCCCGACCCCGCGCCGTCGCCCGTCCCCCCACCAACGGCGCTGCGACGATGGACTCCC (double strand) [htpGp],no binding
14,GTTGGCTGCGTCACCTTTCGCATCATGCCGTACGGCACCGACAGGCACCCCGCCGACGCAGACGTGGCAGTTCAGAGTGCCCTTACGTAACAGAAGTAAACGGATTGTGAACTGGAGCACTCCTGAGTTTGACCCCTTCAAGAGGGGGCAGGCGCCGCGTCGGAGCAGAGCCCGTTGCATTTTCAATCGTCCGAGGGCCTCGCGACGCTCCAGGACGAGAGGT (double strand) [opuAAp],no binding

# Same assay, conditions: up to 1 uM protein; EMSA with 0.15 nM DIG-labeled probe, 0.25-1 uM His6-σ8, ~300-fold excess unlabeled competitor; pH and temperature not given (as in Sun et al., 2016); recombinant protein; residues 1-279; protein details: N-terminal His6 (pET-28a); label: 3' DIG; probe letters rebuilt from the primers and the genome
row,Sequence,binding result
1,ATGGTCGGGAACCTCCGCAATCCGGGCCGGGCGGCCCAGCTGTCGTGGCGATCTACTCCAGGAAACGTAGACCTTTTTCTGCCACTTGTCCGAGCTATGCAGACACCCCGATCCCCTAAGAAATGAACACCCTTGGGAACGGCACAGCCCAGGGGTGGATAGGGGTATTCGCCGCCGCCGCGCCGTCATTAGCTTTGAAGAGTTGAAGACGTTCAAGACATTGATGCCCGGCCGTCAGCGGATTTCTCGCGCTCCTTTCATTCTTCGACGCTGCATTGCAGCTCTCATCATGTCCGCACGGCCGCCGAGCATTGCCTAGCGGTGAGGACACAG (double strand) [aveA1p],no binding
2,GAAACTCCCTGCATGATGTTCTTATTTCTCCTTTTTCCAAGAAAGCGTGTCTCGGGGATTTCGATTGCTTGAGCAAAAGCGGTCGCGGCCGTGCGGGCTGGGTTGATCAGCATCAGAGGTGATGGTCAGTGTTATGAATTTGCCCTGGTGGGCGGGGTAGTGTCAAGGTCGCTGACTTTGATGATTAACTGATGATCGTGGGATTCTGAGGTGGTGTTCGCGAGGGTGAAGGAGTTCCTTCCTGGAGACATCCGTGCCCCGGATGGCGGTCCACAATTCACGAGTGGGATGCGCAGTGGGTCGCGTGCTGCAACACCGAATGGAATACCGGGTGACCGGTATGTATGGCGGTGCGG (double strand) [aveRp],no binding
